PubChem BioAssay AID504784 – Drosophila RNAi Screening Center | 2011

Test: 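Search for regulators of lipid droplet storage in oleate-fed fly cells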 (primary screen)
Cells: Drosophila Kc167 embryonic cells
Reagent: long dsRNA against Drosophila genes, about 250 ng dsRNA per well
Time to read-out: 4 days
Treatment: cells fed 400 µM oleic acid bound to BSA
Measurement: 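Microscope images give a droplet-to-nucleus area ratio, taken as log and converted to a screen-wide B-score; higher values mean greater lipid storage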
Scale: droplet/nuclear area B-score: higher = more stored lipid (overstorage)
The deposit covers about 17,000 reagents; this is an unselected part of those with a known target gene and a result. 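Each column is one replicate's B-score; the combined score over replicates was not deposited, so single values may mislead.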 A plus sign joins genes that one reagent is predicted to hit. Not all columns of the deposit are shown.

droplet/nuclear area B-score, replicate 1, by target and reagent
CG14866: DRSC14989 -0.391
Orct: DRSC16777 2.32
Art1: DRSC16063 -0.354
GILT1: DRSC16565 -0.0806
RpL13: DRSC03416 4.01
CG32206: DRSC09602 0.22; DRSC10094 -2.45; DRSC10095 -0.691; DRSC10096 -0.412; DRSC11080 0.336
IntS10: DRSC08173 0.921
CG14740: DRSC14960 -0.0118
BubR1: DRSC04838 3.09
Pak: DRSC12602 -0.0217; DRSC23302 -0.442
Syn1: DRSC11803 -0.429; DRSC11804 0.0265
PTPMT1: DRSC14235 -0.184
elm: DRSC12309 -0.0973
nej: DRSC18006 -1.49; DRSC18801 -0.0439
CG18787 + CG18789: DRSC02698 -5.53
DCP1: DRSC04091 2.18
CG31908: DRSC21864 -0.841; DRSC23243 0.0739
Or56a: DRSC07495 -1.18
Agps: DRSC05984 1.77
CG42233: DRSC14328 -0.202; DRSC15416 0.91
Pus7: DRSC10703 -0.549
IntS6: DRSC18281 3.09
CG8300: DRSC18426 0.814; DRSC23231 0.0209
spn-A: DRSC16812 0.0172
GstT2: DRSC06244 0.312
Es2: DRSC18663 0.254
Lipt2: DRSC12338 -0.47; DRSC22610 0.0466
CG12640: DRSC17847 0.115
CG14339: DRSC00369 0.128
CG31244: DRSC21589 -1.08
gkt: DRSC00821 0.511
RpS29 + snoRNA:Psi18S-1275: DRSC16433 3.08
CG31055: DRSC13832 -0.715
Pex3: DRSC10731 -0.865
CG5877: DRSC19963 0.808
RpL6: DRSC14323 2.44; DRSC22384 -2.69
G6P: DRSC00414 2.57
Trpml + CG42638: DRSC11032 0.351
verm: DRSC11038 0.81
CG3386: DRSC08566 1.22
c(3)G: DRSC15245 -1.54
Sk2: DRSC08556 0.342
chif: DRSC03508 0.383
CG18294: DRSC09891 0.043
wnd: DRSC11046 -1; DRSC21373 -0.692
CG5104: DRSC11765 -1.16
Sdhaf3: DRSC15020 -0.0472
Tsp42Ec: DRSC06192 -0.086
CG10559: DRSC14255 -0.0435
exu: DRSC07615 -0.883
Pgm2b: DRSC05978 -0.613
CG18281: DRSC11742 -0.00622
CG13053: DRSC09934 0.774
Ag5r2: DRSC19328 -1.13
CG14853: DRSC14977 1.61; DRSC21528 -0.48
CG3792: DRSC02725 -0.655
Pvr: DRSC03080 -0.916
Ir52d: DRSC06264 0.0227
Tmtc2: DRSC00272 -0.853
e: DRSC16936 2.75
Hers: DRSC19429 -0.294; DRSC19676 -1.14
CG13385: DRSC02259 -0.213
dob: DRSC19948 -1.21
ey: DRSC17173 -0.677
CG12099: DRSC08253 1.4
CG3163: DRSC04341 0.516
CG15642: DRSC19678 0.318
Ugt49B2: DRSC16049 -0.175

Reformatted: entries from further up.
target | dsRNA | droplet/nuclear area B-score, replicate 1
CG14740 | DRSC14960 | -0.0118
BubR1 | DRSC04838 | 3.09
Pak | DRSC12602 | -0.0217
Pak | DRSC23302 | -0.442
Syn1 | DRSC11803 | -0.429
